Experimental data as given in PubChem BioAssay AID1508647 (National Center for Advancing Translational Sciences (NCATS), 2021).
Inconclusive means that the source gave no clear call. Such entries were picked first, then a sample of the others. Potencies beside an inconclusive call are fits to weak or partial responses and may not hold up. Activity calls are given as the source filed them. Calls follow the shape of the dose curve; as a rule, active = well fitted inhibition curve with a large enough effect; inconclusive = small, poorly fitted or top-dose-only effect, or another doubt; inactive = no such curve, though single readings can be large or run the other way.

Sequences of proteins named here, by UniProt entry; tags and fusion partners are left off. A change or cut given only in a name is not applied to a line headed by its entry.
UniProt P25094: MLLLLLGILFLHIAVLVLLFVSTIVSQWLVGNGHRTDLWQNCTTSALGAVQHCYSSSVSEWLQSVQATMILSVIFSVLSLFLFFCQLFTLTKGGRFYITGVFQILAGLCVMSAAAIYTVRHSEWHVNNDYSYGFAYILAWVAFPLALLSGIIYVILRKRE

The molecules below were run against Peripheral myelin protein 22 (Rattus norvegicus) (UniProt P25094) (assay: Cell-based HiBiT reporter assay to measure PMP22 protein expression in S16 Pmp22-HiBiT cells - Confirmatory screen). Conditions: S16 Schwann cells Pmp22-HiBiT, luminescence, 48 h; activity change, negative = inhibition: at 27.9 µM (top of the series).
Excerpt: Assay Provider: Jim Inglese Ph.D. National Center for Advancing Translational Science, National Institutes of Health, Rockville, MD CMT is a heterogeneous group of neurological disorders that affect approximately 1 in 2,500 people. In particular, the most common form of CMT, CMT1A is genetically linked to the duplication of the PMP22 gene which leads to Schwann cell overexpression, thus manifesting itself as a typical case of dose-sensitive diseases. To identify small molecule compounds that can mediate the expression of PMP22 we developed a phenotypic assay screening strategy by utilizing genome editing techniques to construct Schwann cell lines containing novel reporter technology to monitor the transcriptional or translational regulation of PMP22. For high sensitivity we use a bioluminescent reporter system embedded in the 3' UTR of the PMP22 gene (S16(c9) Pmp22-F2sN) to identify compounds that inhibit gene expression. […] We can further discriminate the effect of all transcriptionally active molecules on PMP22 translation or stability with an assay that incorporates a short NLuc peptide (HiBiT) at the C-terminus of expressed PMP22 (S16(f8) PMP22-HiBiT) allowing alpha complementation and luminescence detection of membrane-associated PMP22 protein. These assays were screened against the NCATS Sytravon Library Collection. Miniaturization of these assays to 1536-well plate format for quantitative high throughput screening (qHTS) yielded rich data sets immediately from the qHTS assay (S16(c9) Pmp22-F2sN), when compared with data from a cell viability assay (Cell TiterGlo) to identify compounds that decreased the output signals through cellular toxicity to streamline the selection process of actives for subsequent characterization using the HiBiT assay (S16(f8) PMP22-HiBiT).
Cell-based HiBiT reporter assay to measure PMP22 protein expression in S16 Pmp22-HiBiT cells PROTOCOL TABLE (format as described by Inglese J, Shamu CE and Guy RK. 2007) SEQUENCE No. (e.g., 1, 2, 3, etc.); PARAMETER (e.g., Cells, Incubation, Reagent, etc.); VALUE and DESCRIPTION. 1. Cells. Add 1,500 cells in 5 uL in growth media (DMEM High Glucose, No Phenol Red media + 10% heat-inactivated FBS + 1% Pen/Strep supplemented media) per well into Greiner 1536-well white/solid bottom high base, TC-treated plates. 2. Compounds. Library compounds and controls added at 23nL per well, transferred by Pin Tool. 3. Incubation. Incubate plates at 37C, 5% CO2, 95% RH for 48 h. 4. Media removal. Invert and centrifuge plates. 5. Reagent. Add 3uL NanoGlo HiBiT Lytic Detection Reagent per well of Greiner 1536-well plates. 6. Incubation. Incubate plates at room temperature for 15 min., protect from light. 7. Detector. NLuc luminescence measured using CCD-based camera (Viewlux). NOTES (numbers refer to Sequence numbers above; values are from representative experiments) 7. Luminescence Read: Clear filter; Exposure = 10 sec, Gain = High, Speed = Slow, Binning = 2X REFERENCES: 1. Inglese J, Shamu CE and Guy RK, Reporting data from high throughput screening of small molecule libraries, Nature Chemical Biology, 2007, 3(8): 438-441. doi.org/10.1038/nchembio0807-438 2. Yasgar A, Shinn P, Jadhav A, Auld DS, Michael S, Zheng W, Austin CP, Inglese J and Simeonov A, Compound Management for Quantitative High-Throughput Screening. J. Assoc. Lab. Auto., 2008, 13: 79-89. doi: 10.1016/j.jala.2007.12.004

Potency, inconclusive:
CCc1nnc(NC(=O)c2nc(S(C)(=O)=O)ncc2Cl)s1 8.13 µM [inhibitor, partial curve]
Cc1ccc(CS(=O)(=O)c2ncc(Cl)c(C(=O)Nc3nc4ccc(F)cc4s3)n2)cc1 4.07 µM [inhibitor, full curve]
COc1ccccc1Nc1nn2c(=O)c3ccc(C(=O)Nc4ccc(F)cc4)cc3nc2s1 7.24 µM [inhibitor, partial curve]
COCCCNC(=O)c1ccc2c(c1)N=C(C)c1c(C)ccc(C)c1S2 0.0204 µM [inhibitor, full curve]
COc1ccccc1-c1cc(C(F)(F)F)nc(S(=O)(=O)CCCC(=O)Nc2ccc(F)cc2F)n1 4.07 µM [inhibitor, partial curve, poor fit]
COc1ccc(-c2noc(CSc3nnc(-c4ccncc4)n3-c3ccc(C)cc3)n2)cc1 2.88 µM [inhibitor, partial curve]
CCC(Sc1nc2ccccc2c2nc(-c3ccccc3)nn12)C(=O)Nc1cccc(OC)c1 (stereo unspecified) 10.2 µM [inhibitor, partial curve, poor fit]
CCc1ccc(C(=O)c2cn(CC(=O)Nc3ccc4c(c3)OCO4)c3ccc(CC)cc3c2=O)cc1 18.2 µM [inhibitor, partial curve]
Cc1ccc(C(=O)Nc2ccc(S(=O)(=O)N3CCC(c4nc5ccccc5s4)CC3)cc2)cc1 10.2 µM [inhibitor, partial curve, poor fit]
CCC1=Nc2cc(C(=O)NCCCOC)ccc2Sc2ccc(Br)cc21 0.575 µM [inhibitor, full curve]
O=C(CCS(=O)(=O)c1nc(-c2cccs2)cc(C(F)(F)F)n1)Nc1ccc(F)c(Cl)c1 5.13 µM [inhibitor, partial curve]
COc1ccc(C)cc1NS(=O)(=O)c1ccc(-c2cnc(C3CC3)o2)cc1 0.182 µM [inhibitor, full curve, poor fit]
Cc1ccc(NC(=O)Cn2c(=O)n(-c3ccc(C)cc3)c(=O)c3ccc(C(=O)NCc4ccccc4Cl)cc32)cc1 12.9 µM [inhibitor, partial curve]
CCCCOc1ccc(CN2C(=O)C(=O)c3cc(Br)cc(C)c32)cc1OC 5.75 µM [inhibitor, full curve]
CCc1ccc(NC(=O)Cn2c(=O)n(-c3ccc(OC)cc3)c(=O)c3ccc(C(=O)NCc4ccc(C)cc4)cc32)cc1 20.4 µM [inhibitor, single point]
COc1ccc(Nc2nc3c(S(=O)(=O)c4ccccc4)nnn3c3ccc(Cl)cc23)cc1 2.29 µM [inhibitor, full curve]
O=C(CCS(=O)(=O)c1nc(-c2cccs2)cc(C(F)(F)F)n1)Nc1ccc(OC(F)(F)F)cc1 4.07 µM [inhibitor, partial curve, poor fit]
CCCC1=Nc2cc(C(=O)NC3CCCCC3)ccc2Sc2ccc(C)cc21 1.15 µM [inhibitor, full curve, poor fit]

Activity change, negative = inhibition, inconclusive:
Cc1ccc(CNC(=O)c2ccc(Cn3c(=O)c4ccccc4n(CC(=O)Nc4c(C)cc(C)cc4C)c3=O)cc2)cc1 -45.7% [inhibitor]

Activity change, negative = inhibition, inactive:
Cc1ccc(C)c(NC(=O)Cn2c(=O)n(Cc3ccc4c(c3)OCO4)c(=O)c3ccc(C(=O)NC4CCCCC4)cc32)c1 0.987%
COCCCNC(=O)c1ccc(-n2c(-c3ccccc3)cc3c2CCC(C)C3)cc1 (stereo unspecified) 10%
CCOc1ccc(C(=O)c2cnc3ccc(Cl)cc3c2S(=O)(=O)c2ccc(C)cc2)cc1 31.2%
O=C(CCS(=O)(=O)c1nc(-c2cccs2)cc(C(F)(F)F)n1)Nc1ccc(Br)cc1 64.8%
CCc1ccc(OCC(=O)Nc2cc3oc4ccccc4c3cc2OC)cc1 10.8%
O=C(NCCCN1CCN(c2ccc(F)cc2)CC1)c1cc2c(Cl)nc3ccccc3c2s1 10.5%
COc1ccc(Br)c2c1-c1nc(NC(=O)c3cccc(C)c3)sc1C2 32.8%
COC(=O)c1c(-c2ccc(Cl)cc2)noc1N1CCN(c2cccc(C(F)(F)F)c2)CC1 84.1%
CCOCCCNC(=O)c1ccc(-n2c(-c3ccccc3)cc3c2CCC(C)C3)cc1 (stereo unspecified) 4.56%
CCC(=O)C1=C(c2cccc([N+](=O)[O-])c2)N(C(=O)CC)n2c(nnc2-c2ccccc2)S1 -0.665%
COc1ccc(NC(=O)CCS(=O)(=O)c2nc(-c3cccs3)cc(C(F)(F)F)n2)cc1 22.6%
Cc1ccc(CN2C(=O)C(O)(c3c(C)[nH]c4ccccc34)c3ccccc32)cc1 (stereo unspecified) -9.16%

Retrieved by structure from above, two records:
Activity change, negative = inhibition, inactive:
COc1ccc(NC(=O)CCS(=O)(=O)c2nc(-c3cccs3)cc(C(F)(F)F)n2)cc1 22.6%
Cc1ccc(C)c(NC(=O)Cn2c(=O)n(Cc3ccc4c(c3)OCO4)c(=O)c3ccc(C(=O)NC4CCCCC4)cc32)c1 0.987%
